# In PubChem BioAssay AID1347075 (National Center for Advancing Translational Sciences (NCATS), 2019):
# Values joined by “and” are separate entries in the source; they are usually repeats but may differ in a detail not shown here. Equal values may be shown once. Out of some 400,000 compounds screened, about 5,500 (1.4%) were called active. The shares of active, inactive and inconclusive entries below differ from those in the screen. Calls come from the whole dose curve; as a rule, active = well fitted cell-killing curve with a large enough effect; inconclusive = small, poorly fitted or top-dose-only effect, or effect the other way; inactive = flat fitted curve, though single readings scatter. Potencies beside an inconclusive call are fits to weak or partial responses and may not hold up.
# Assay: qHTS assay for MDR1-selective chemotherapeutics: Primary screen using the parental adenocarcinoma cell KB-3-1; note: nearly all actives have a fitted effect of over 60% in size
# Settings: KB-3-1 viability, CellTiter-Glo ATP luminescence, 72 h; activity change, negative = cytotoxic: at 46.1 µM (top of the series)
# Method in brief: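 KB-3-1 parental drug-naive adenocarcinoma cells in DMEM/10% FBS, incubated 72 h at 37 C with pin-transferred compounds across a concentration series. Viability by CellTiter-Glo luminescence; concentration-response curves fitted after normalization.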
# % is set by controls: 0 for no effect and ±100 for the full control effect; potency is the fitted concentration of half-maximal effect.
SMILES,Potency,"activity change, negative = cytotoxic"
CCCCCCCCCCCC1N=C(N)NC(CCCO)=C1C(=O)OC (stereo unspecified),"inconclusive: 29.1 µM [cytotoxic, single point]",
COc1ccc(N(C(=O)Cc2cccs2)C(C(=O)NC2CCCCC2)c2cccn2C)cc1OC (stereo unspecified),inactive,
C/C=C/COC(=O)c1[nH]c2c(c1C)C(=O)CC(c1ccc(N(C)C)cc1)C2 (stereo unspecified),"inconclusive: 18.4 µM [cytotoxic, single point]",
CC1(C)C/C(=N\NC(=S)Nc2ccccc2F)c2cc(O)ccc2O1,"inconclusive: 23.1 µM [cytotoxic, single point]",
COc1ccccc1-c1cc(C(F)(F)F)nc(NCc2ccco2)n1,"inconclusive: 29.1 µM [cytotoxic, single point]",
Nc1c(-c2nc(-c3ccccc3)cs2)c2ccccn2c1C(=O)c1ccc2c(c1)OCO2,"inconclusive: 29.1 µM [cytotoxic, single point]",
O=C(N/N=C/c1cc(Br)ccc1O)c1ccccc1Cl,"inconclusive: 23.1 µM [cytotoxic, partial curve, poor fit]",
CCCCCn1c(=O)c2ccccc2n2c(CCl)nnc12,"inconclusive: 25.9 µM [cytotoxic, single point]",
CCOC(=O)C1(Cc2cccc(F)c2)CCN(Cc2cnn(CC)c2)CC1,inactive,
CCN1CCc2c(sc(NC(=O)c3cc4ccccc4cc3OC)c2C(N)=O)C1,"inconclusive: 29.1 µM [cytotoxic, partial curve, poor fit]",
c1ccc2sc(N3CN(CCN4CCOCC4)CN(c4nc5ccccc5s4)C3)nc2c1,"inconclusive: 29.1 µM [cytotoxic, single point]",
CC(C)n1nc(C(=O)Nc2cccc(S(=O)(=O)NCc3ccco3)c2)c2ccccc2c1=O,"inconclusive: 32.6 µM [cytotoxic, single point]",
CCCCCCCCCCCCCCCC(=O)OC(CC(=O)O)C[N+](C)(C)C (stereo unspecified),active: 3.66 µM,
Cc1cccc(CS(=O)(=O)c2ncc(Cl)c(C(=O)Nc3nc4ccc(F)cc4s3)n2)c1,"inconclusive: 18.4 µM [cytotoxic, single point]",
COc1ccc2oc(C(=O)OCC(=O)N3CCCC3=O)c(C)c2c1,inactive,
COc1ccc(N(CC(=O)NCCSCc2ccccc2C)S(=O)(=O)c2ccccc2)cc1,"inconclusive: 20.6 µM [cytotoxic, single point]",
O=C(NC1CCCCC1)C(CCc1ccccc1)N1CCc2ccccc2C1 (stereo unspecified),"inconclusive: 29.1 µM [cytotoxic, single point]",
O=C(Cc1csc(Nc2nc(=S)[nH]c3ccccc23)n1)N1CCN(c2cccc(Cl)c2)CC1,active: 23.1 µM,
CC(=O)c1cc(-c2ccccc2)n(CCC(=O)Nc2ccc(C(C)C)cc2)c1C,"inconclusive: 20.6 µM [cytotoxic, single point]",
CC(C)(C)OC(=O)N1CCC(c2c(C(=O)NCCN3CCCC3)cnn2-c2ccc(Cl)cc2)CC1,inactive,
Cc1cc(C)n2c(Nc3c(C)cccc3C)c(-c3ccccn3)nc2n1,"inconclusive: 29.1 µM [cytotoxic, single point]",
CCOC(=O)c1ccc(N/C(=N\S(=O)(=O)c2ccccc2C)c2ccccc2)cc1,"inconclusive: 32.6 µM [cytotoxic, single point]",

SMILES,Potency,"activity change, negative = cytotoxic"
Cc1cc(C(=O)CN2C(=O)c3ccccc3C2=O)c(C)n1C1CC1,inactive,
CC(C)c1ccc(/C=N/NC(=O)CN(c2cccc(Cl)c2Cl)S(C)(=O)=O)cc1,"inconclusive: 18.4 µM [cytotoxic, single point]",
CC(=O)Nc1ccc(SCC(=O)NCCc2ccc(F)cc2)cc1,"inconclusive: 32.6 µM [cytotoxic, partial curve, poor fit]",
O=C1NC(Cc2ccc(O)cc2)c2nc3cc(Cl)ccc3c(=O)n2-c2cc3ccccc3cc21 (stereo unspecified),"inconclusive: 6.51 µM [cytotoxic, partial curve]",
O=C(NCCc1c[nH]c2ccccc12)OCCCCOC(=O)NCCc1c[nH]c2ccccc12,"inconclusive: 29.1 µM [cytotoxic, single point]",
CCN(CC)CCN1CCN(c2cncc(-c3cccc(N)c3)n2)CC1,inactive,
COC(=O)c1cn(NC(=O)c2cnccn2)c(=O)c2ccccc12,"inconclusive: 8.2 µM [cytotoxic, partial curve]",
COc1ccc(NC(=O)c2cccc(S(=O)(=O)Nc3ccc(Br)cc3)c2)cn1,active: 11.6 µM,
Cc1ccc(S(=O)(=O)NC(=O)c2ccc(-c3ccc(C)c4ccccc34)o2)cc1,inactive,
O=C(OCC#CCSc1nnc(-c2ccccc2)o1)c1cc2ccccc2o1,inactive,
CSc1ccc(S(=O)(=O)NCc2ccccc2C)cc1,"inconclusive: 18.4 µM [cytotoxic, single point]",
Cc1cc(C)c(OCC(=O)Nc2nc(-c3ccccn3)cs2)c(C)c1,"inconclusive: 29.1 µM [cytotoxic, single point]",
COc1ccccc1OCCn1c(C(C)Oc2ccccc2)nc2ccccc21 (stereo unspecified),inactive,
O=C(CSc1cccc2cccnc12)N/N=C/c1cccnc1,,inconclusive: -2.91%
CC(C)(C)NC(=O)CSc1nnc(C2CC2)n1-c1ccccc1,"inconclusive: 0.0231 µM [cytotoxic, full curve]",
COc1ccc(C(=O)c2ccc(Cl)cc2)c2ccccc12,"inconclusive: 20.6 µM [cytotoxic, single point]",
COc1cc(-c2nc3cc(C)ccn3c2NC2CCCCC2)ccc1-c1ccc(C(C)=O)cc1,inactive,
COC(=O)c1ccc(S(=O)(=O)N2C3CCC2CC(NC(=O)NC2CCCCC2)C3)cc1 (stereo unspecified),inactive,
Cc1cccc(N2CCN(C(=O)c3cc4n(n3)C(C(F)(F)F)CC(c3ccco3)N4)CC2)c1C (stereo unspecified),"inconclusive: 29.1 µM [cytotoxic, single point]",
Cc1nc(NC(=O)c2ccco2)sc1C(=O)Nc1ccc(Br)cc1,"inconclusive: 29.1 µM [cytotoxic, single point]",
CCOc1cc(C#N)c(NC(=O)c2cccnc2)cc1OCC,active: 0.651 µM,
C[C@@H]1O[C@H](C2CCCC2)Cc2[nH]c(=S)[nH]c(=O)c21,active: 16.4 µM,

# Laid out differently: results already given.
SMILES | Potency | activity change, negative = cytotoxic
COC(=O)c1cn(NC(=O)c2cnccn2)c(=O)c2ccccc12 | inconclusive: 8.2 µM [cytotoxic, partial curve] | 
COc1cc(-c2nc3cc(C)ccn3c2NC2CCCCC2)ccc1-c1ccc(C(C)=O)cc1 | inactive | 

# Further records.

SMILES,Potency,"activity change, negative = cytotoxic"
CCOc1ccccc1-n1c(SCC(=O)Nc2ccc(CC)cc2)nc2n[nH]c(C)c2c1=N,active: 18.4 µM,
CC(=O)N(CCC(Cc1ccccc1)c1ccc2c(c1)OCO2)Cc1ccccc1F (stereo unspecified),inactive,
CN(Cc1ccccc1)C(=O)c1[nH]cnc1C(=O)Nc1ccc(Br)cc1F,active: 16.4 µM,
CCOC(=O)OCC(=O)C1(O)CCC2C3CCC4=CC(=O)CCC4(C)C3C(O)CC21C (stereo unspecified),"inconclusive: 0.461 µM [rising, full curve, poor fit]",
COC(=O)C(Cc1cnc(Cl)s1)(C(=O)OC)c1ccc([N+](=O)[O-])cc1[N+](=O)[O-],"inconclusive: 25.9 µM [cytotoxic, single point]",
Cc1ccccc1OCc1n(CC(=O)OC2CC(C)CCC2C(C)C)c2ccccc2[n+]1C (stereo unspecified),"inconclusive: 18.4 µM [cytotoxic, single point] and inconclusive: 29.1 µM [cytotoxic, single point]",
NC(=O)CC(NC(=O)Cc1ccc(Br)cc1)c1ccc(N2CCC(N3CCCCC3)CC2)c([N+](=O)[O-])c1 (stereo unspecified),"inconclusive: 6.51 µM [rising, full curve, poor fit]",
CC(C)c1nc(-c2ccc([N+](=O)[O-])cc2)cs1,,inconclusive: 18.4%
CC1(C(=O)NCc2cccc3ccccc23)CCN1Cc1ccccc1OC(F)F (stereo unspecified),"inconclusive: 29.1 µM [cytotoxic, single point]",
NC(=S)N/N=C1\CCOc2ccc(Cl)cc21,"inconclusive: 29.1 µM [cytotoxic, single point]",
CCn1c(SCC(=O)c2ccc(O)c(O)c2)nnc1-c1ccc(C)cc1,"inconclusive: 29.1 µM [cytotoxic, single point]",
Cc1ccc(NS(=O)(=O)c2cccc(C(=O)NC3CCN(Cc4ccccc4)CC3)c2)c(C)c1,"inconclusive: 29.1 µM [cytotoxic, single point]",
CC(C)(CNC(=O)CNC(=O)c1ccccc1F)N1CCOCC1,inactive,
Cc1nc2cc3c(cc2c(C)c1C(=O)OC(C)C)OCO3,inactive,
O=C(NCCCn1ccnc1)c1cc(-c2ccc3c(c2)OCO3)on1,inactive,
O=C(C[n+]1cccc(Br)c1)c1ccc2c(c1)CCCC2,"inconclusive: 29.1 µM [rising, single point]",
CC1CCN(c2nc3ccc(C(=O)O)cc3s2)CC1,inactive,
CC(=O)C1(O)CCC2C3CC(C)C4=CC(=O)C=CC4(C)C3(F)C(O)CC21C (stereo unspecified),"inconclusive: 0.366 µM [rising, full curve]",
CCOCCC(=O)Nc1ncc(S(=O)(=O)c2ccc([N+](=O)[O-])cc2)s1,"inconclusive: 18.4 µM [cytotoxic, partial curve, poor fit]",
CCCCC(=O)OCC(=O)C1(O)Cc2c(O)c3c(c(O)c2C(OC2CC(NC(=O)C(F)(F)F)C(O)C(C)O2)C1)C(=O)c1c(OC)cccc1C3=O (stereo unspecified),"inconclusive: 5.17 µM [cytotoxic, full curve, poor fit]",
CCn1cc(C(=O)O)c(=O)c2cc(F)c(N3CCN(C(=S)NC(=O)c4cc(OC)cc(OC)c4)CC3)cc21,"inconclusive: 29.1 µM [cytotoxic, partial curve, poor fit]",
CN1CCc2cccc3c2[C@H]1Cc1ccc(O)c(O)c1-3,"inconclusive: 25.9 µM [cytotoxic, single point] and inconclusive: 29.1 µM [cytotoxic, single point]",
